# From PubChem BioAssay AID1347423 (Functional Genomics Laboratory (NCATS/FGL), 2020)
# The whole screen tested about 52,000 sequences, of which about 210 (0.4%) were called active.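 Rule for the calls: active = gene whose silencing raises cell survival under the drug, median off-target-corrected z-score across its silencing RNAs 2 or more; inactive = the rest.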 The list shows a part of the results.
# Test: Resistance to Poly (ADP-Ribose) Polymerase inhibitor: Gene Identification via Genome-wide siRNA Screen
# Details: mouse BRCA2 R2336H ES cells, olaparib, CellTiter-Glo viability; active compounds read high
# Summary of the method: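 Mouse BRCA2 R2336H ES cells were reverse-transfected with siRNA (20 nM final), treated at 48 h with 500 nM olaparib, and read by CellTiter-Glo after 72 h. Scores: MAD-based z per siRNA, median per gene, seed off-target correction.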
row,Sequence,z-score
1,CCCAUGGAACGGGAAGCUUTT against Serpinb9d,inactive: 0.36
2,GGACAUUGACAAAAUCAUCTT against Sec14l2,inactive: 0.556
3,CCUCCUAAUAUGUUAAUACTT against Gmfb,inactive: -1.44
4,GCCAAACACUCGACUCUAATT against LOC432615,inactive: -0.086
5,GGUUACCCAACUUGAAGGATT against BC055447,inactive: -1.36
6,GGUUCUAUGUUGACAAUCATT against BC010311,inactive: 0.142
7,GGUACUCUCAUUAUCUUUCTT against Tlr8,inactive: -0.073
8,GGGUGAUAGCAAGACACAGTT against Olfr720,inactive: 0.646
9,GGUUCCUUCGUGAAUGUCATT against Glp1r,inactive: -1.47
10,GGACGAAUAGAAAUCAUAGTT against Cd84,inactive: -0.939
11,GGCUGACAGGAUUAUCACATT against Hibadh,inactive: 1.22
12,GGCAGCACUACAAAACUUGTT against 1700045I19Rik,inactive: -0.107
13,GGCUGUUCAUCAGCAGAUUTT against Nme6,inactive: 0.444
14,GGUUCAUUUCAGUUGGGUUTT against 2010110M21Rik,inactive: -1.32
15,GCAAGCAUAGAGCAAAUAUTT against Gosr2,inactive: -1.17
16,GCCGAAACCUCUAUAAGCUTT against 4833408A19Rik,inactive: 0.388
17,GGAGUUCUUCACGCGUAACTT against G6pd2,inactive: 0.52
18,GGGUAUAACAAGACUACAATT against Dctn3,inactive: -2.76
19,CCUGAGAUUUCCUAACAUCTT against B930067F20Rik,inactive: 0.731
20,CGGAAUAAUCUUGUCUCCGTT against Alox12e,inactive: 0.0251
21,GGGUUCUGGUGGCUAAGUUTT against 5730507A09Rik,inactive: -1.69
22,GGCUCAUCAUUUACUUAAUTT against Slc22a3,inactive: -0.156

row,Sequence,z-score
1,GCACCUUCAGCUAUCUAACTT against 5730521E12Rik,inactive: 0.513
2,GGAGACCUUUUUGAACCUGTT against Zfp472,inactive: 0.0171
3,GGUGAAGCUUGAGAUACUATT against Gcnt1,inactive: -0.464
4,GGAGAUGACCAAGUGGAAUTT against Pitpnm1,inactive: 1.1
5,GGGUAACAACCAUGUCCGUTT against Pspn,inactive: 2.48
6,CCGUCUUCAAGACAGAUGCTT against 2410018G20Rik,inactive: 0.446
7,GGGUGUCGAUUAUAACAGATT against Hnf4a,inactive: -1.42
8,CCGGAGGUUCCAACAAACUTT against Dlx1,inactive: 2.32
9,GGCCUAGUUCCAGUUAUGCTT against Olfr1093,inactive: 1.04
10,GGAGUCAUGAAGACCAAUUTT against 1700018C11Rik,inactive: 0.368
11,GGAGCUAUGCAUCAUUAAUTT against Srp14,inactive: 1.4
12,CGCGUACGACUUCUACAAATT against Hmgcs2,inactive: 0.614
13,GGGUUUCUUACUGAAGAAATT against B230380D07Rik,inactive: 0.724
14,GGUCUUUCAAGAGUUGAAATT against 2810405J04Rik,inactive: -0.157
15,GGCUCAGGACUUUGUCUACTT against Lhx4,inactive: 0.346
16,CGGAUGCAAUCUGACCAGATT against Ubie,inactive: 0.745
17,CGAAUGCACAUCGUUACUGTT against Fbln2,inactive: -0.375
18,GCCGUAGUAGACAAUCAUGTT against Ankrd28,inactive: -0.00211
19,GCUCAAUGCUACUAUAGACTT against Lif,inactive: -0.453
20,GGGUUCUUUCUGAGAGAAATT against Tnfrsf1a,inactive: -0.99
21,GGAAGUCCACAAAUGAAGGTT against C130057E09Rik,inactive: -0.025
22,GGAUAGCAUGCUUCCUGAGTT against Rhbdl6,inactive: -1.02

# Shown bar-delimited: part of the list above
row | Sequence | z-score
14 | GGUUCAUUUCAGUUGGGUUTT against 2010110M21Rik | inactive: -1.32
15 | GCAAGCAUAGAGCAAAUAUTT against Gosr2 | inactive: -1.17
16 | GCCGAAACCUCUAUAAGCUTT against 4833408A19Rik | inactive: 0.388
17 | GGAGUUCUUCACGCGUAACTT against G6pd2 | inactive: 0.52
18 | GGGUAUAACAAGACUACAATT against Dctn3 | inactive: -2.76
19 | CCUGAGAUUUCCUAACAUCTT against B930067F20Rik | inactive: 0.731
20 | CGGAAUAAUCUUGUCUCCGTT against Alox12e | inactive: 0.0251
21 | GGGUUCUGGUGGCUAAGUUTT against 5730507A09Rik | inactive: -1.69
22 | GGCUCAUCAUUUACUUAAUTT against Slc22a3 | inactive: -0.156
1 | GCACCUUCAGCUAUCUAACTT against 5730521E12Rik | inactive: 0.513
2 | GGAGACCUUUUUGAACCUGTT against Zfp472 | inactive: 0.0171
3 | GGUGAAGCUUGAGAUACUATT against Gcnt1 | inactive: -0.464

# Later entries:

row,Sequence,z-score
1,GGAAUCAACAAGGUUAUCATT against BC038479,inactive: 1.37
2,GGAACAGAUGAAACCAUUATT against Psmc1,inactive: -2.73
3,CCAAUUGAUGUCAACAAGUTT against Atp7b,inactive: -0.254
4,CGGUUGAUGGAAAAAUACATT against Ppef2,inactive: -1.39
5,CGGGAAAUAAUUUUUGGUUTT against Snx4,inactive: 0.62
6,GGAAUUGGUUUCAUUCAUCTT against Impdh1,inactive: -0.623
7,GCUUGGGUAAUAGAAAUCATT against Gm316,inactive: 1.21
8,GGGAGCAUUGGCCAGAGUUTT against MOR135-11,inactive: -0.0207
9,GCAACGUGUCUUUUCAAACTT against A630033H20Rik,inactive: 0.12
10,GGUACCUGAGUCCAUCUCATT against Sntb1,inactive: 0.0675
11,GGAAAACAUGGAGAAGAAATT against Lars,inactive: -0.799
12,CCUUGCUACUCUGAUAACGTT against Tmeff1,inactive: -0.647
13,GGAUUAUCCCGACUAUAUGTT against 2610025M23Rik,inactive: -0.188
14,GGGAGUGAUUCAACAUUACTT against Galk1,inactive: -0.355
15,GCAACGAGUCUACGUCAUCTT against Pex14,inactive: -0.0319
16,GGUACUAAAGUCAUGUUUGTT against Art2b,inactive: 0.213
17,GCGAGUCCUGCCUAUCGAUTT against Pnmt,inactive: 0.713
18,GGGCUACAUGAAAAUUCUGTT against Aicda,inactive: -0.873
19,GCGAGUACUUACUCUUCGUTT against Rpl3,inactive: -2.63
20,GGAGAUUCGCAUGCUCAUCTT against A130096K20,inactive: 0.0834
21,GCUAGAUGAACGAGCGAACTT against Slc25a1,inactive: 0.0564
22,GCUGAAAUAUGUGAGAGCATT against Sdcbp,inactive: 0.413
